Taken from: PubChem BioAssay AID493246 (Drosophila RNAi Screening Center, 2011)

Assay: 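Genome-wide search for dsRNAs that reduce cell number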 (primary screen)
Cell system: Drosophila Kc and S2R+ cells
Reagents: long dsRNA against Drosophila genes
Read-out: 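Raw, unnormalised count of remaining cells in each well; per-plate z-scores of cell number underlie the calls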
Scale: Kc cell number and S2R+ cell number: higher = more cells remaining
Call rule: 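Active when the per-plate z-score of cell number is 3 or more in the direction of fewer cells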
The deposit covers about 21,000 reagents; this is a random part of those that have a named target and a result. In the full data, 429 (2%) are marked active. 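Values are raw and not normalised between plates; calls rest on per-plate z-scores that were not deposited.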 The numbers tell different reagents against one gene apart. A plus sign joins genes that one reagent is predicted to hit. Not given: the amount of reagent, the time to read-out.

target gene | reagent | Kc cell number, rep 1 | Kc cell number, rep 2 | S2R+ cell number, rep 1 | S2R+ cell number, rep 2 | Call
Cyp6a2 | 1 | 1.67e6 | 1.58e6 | 1.47e6 | 1.54e6 | inactive
CG17754 | 1 | 5.45e5 | – | 9.39e5 | – | inactive
Rpe | 1 | 9.52e5 | 1.45e6 | 8.61e5 | 9.78e5 | inactive
CG13931 | 1 | 1.48e6 | 1.41e6 | 9.93e5 | 1.21e6 | inactive
CG2685 | 1 | 1.31e6 | 1.38e6 | 7.04e5 | 8.23e5 | inactive
Tpr2 | 1 | 1.58e6 | 1.63e6 | 1.43e6 | 1.48e6 | inactive
Kua | 1 | 1.52e6 | 1.61e6 | 1.28e6 | 3.00e5 | inactive
Shawn + Tyler | 1 | 1.55e6 | 1.63e6 | 1.02e6 | 1.22e6 | inactive
Shawn + Tyler | 2 | 1.55e6 | 1.55e6 | 1.15e6 | 1.32e6 | inactive
fy | 1 | 1.62e6 | 1.66e6 | 1.31e6 | 1.44e6 | inactive
CG12535 | 1 | 1.60e6 | 1.52e6 | 1.11e6 | 1.27e6 | inactive
CG4839 | 1 | 1.51e6 | 1.58e6 | 9.66e5 | 1.00e6 | inactive
CG4839 | 2 | 1.51e6 | 1.57e6 | 1.19e6 | 1.35e6 | inactive
Sfxn1-3 | 1 | 1.27e6 | 1.26e6 | 1.32e6 | 1.40e6 | inactive
ATPsynG | 1 | 1.57e6 | 1.58e6 | 8.94e5 | 1.01e6 | inactive
Mulk | 1 | 1.24e6 | 1.29e6 | 1.29e6 | 1.28e6 | inactive
Vps53 | 1 | 1.32e6 | 1.33e6 | 1.01e6 | 1.09e6 | inactive
CG4995 | 1 | 1.47e6 | 1.47e6 | 1.16e6 | 1.20e6 | inactive
Inos | 1 | 1.46e6 | 1.52e6 | 1.27e6 | 1.40e6 | inactive
wrapper | 1 | 1.41e6 | 1.50e6 | 1.01e6 | 1.11e6 | inactive
Fmo-1 | 1 | 1.42e6 | 1.51e6 | 1.09e6 | 1.12e6 | inactive
E(spl)m4-BFM | 1 | 1.50e6 | 1.51e6 | 1.01e6 | 1.12e6 | inactive
Su(fu) | 1 | 1.53e6 | 1.59e6 | 1.28e6 | 1.41e6 | inactive
CG18814 | 1 | 1.44e6 | 1.59e6 | 1.19e6 | 1.30e6 | inactive
msps | 1 | 1.56e6 | 1.62e6 | 1.15e6 | 1.20e6 | inactive
CG7420 | 1 | 1.42e6 | 1.41e6 | 9.88e5 | 1.02e6 | inactive
Evi5 | 1 | 1.55e6 | 1.56e6 | 1.02e6 | 1.16e6 | inactive
CG11878 | 1 | 1.70e6 | 1.79e6 | 1.05e6 | 1.15e6 | inactive
eIF4E3 | 1 | 1.30e6 | 1.39e6 | 1.18e6 | 1.12e6 | inactive
cmb | 1 | 1.31e6 | 1.35e6 | 1.36e6 | 1.46e6 | inactive

Continued; the last 3 above are carried over.
target gene | reagent | Kc cell number, rep 1 | Kc cell number, rep 2 | S2R+ cell number, rep 1 | S2R+ cell number, rep 2 | Call
CG11878 | 1 | 1.70e6 | 1.79e6 | 1.05e6 | 1.15e6 | inactive
eIF4E3 | 1 | 1.30e6 | 1.39e6 | 1.18e6 | 1.12e6 | inactive
cmb | 1 | 1.31e6 | 1.35e6 | 1.36e6 | 1.46e6 | inactive
CG11085 | 1 | 1.60e6 | 1.54e6 | 1.04e6 | 1.12e6 | inactive
CG4629 | 1 | 1.58e6 | 1.63e6 | 1.01e6 | 1.19e6 | inactive
velo | 1 | 8.74e5 | 9.52e5 | 7.01e5 | 8.52e5 | active
velo | 2 | 9.12e5 | 1.06e6 | 1.01e6 | 9.35e5 | inactive
CG31189 | 1 | 1.19e6 | 1.23e6 | 1.13e6 | 1.21e6 | inactive
CG3795 | 1 | 5.11e5 | – | 7.53e5 | – | inactive
Abcd1 | 1 | 5.09e5 | – | 8.25e5 | – | inactive
CG12995 | 1 | 1.53e6 | 1.58e6 | 1.18e6 | 1.29e6 | inactive
Nfs1 | 1 | 1.43e6 | 1.43e6 | 1.12e6 | 1.19e6 | inactive
CG12862 | 1 | 1.57e6 | 1.52e6 | 1.16e6 | 1.26e6 | inactive
CG42570 | 1 | 1.42e6 | 1.59e6 | 1.17e6 | 1.36e6 | inactive
Tbcd | 1 | 1.33e6 | 1.35e6 | 8.00e5 | 7.97e5 | inactive
CG13116 | 1 | 1.48e6 | 1.45e6 | 1.05e6 | 1.16e6 | inactive
Ir67b | 1 | 1.60e6 | 1.69e6 | 1.15e6 | 1.34e6 | inactive
GCS2alpha | 1 | 1.58e6 | 1.56e6 | 1.03e6 | 1.18e6 | inactive
scf | 1 | 1.10e6 | 1.31e6 | 1.00e6 | 1.26e6 | inactive
Spt3 | 1 | 1.74e6 | 1.82e6 | 1.33e6 | 1.52e6 | inactive
CG13806 | 1 | 1.36e6 | 1.26e6 | 9.56e5 | 1.23e6 | inactive
endos | 1 | 1.68e6 | 1.71e6 | 1.27e6 | 1.27e6 | inactive
Rbbp5 + CG6434 (retired record) | 1 | 1.64e6 | 1.76e6 | 1.23e6 | 1.36e6 | inactive
CG14115 | 1 | 1.16e6 | 1.15e6 | 1.26e6 | 1.34e6 | inactive
CG9109 | 1 | 1.21e6 | 1.43e6 | 4.63e5 | 5.17e5 | inactive
ATPsynCF6 | 1 | 1.44e6 | 1.54e6 | 8.80e5 | 9.94e5 | inactive
Cpr49Ac | 1 | 1.44e6 | 1.49e6 | 1.17e6 | 1.23e6 | inactive
CG4641 (retired record) | 1 | 1.58e6 | 1.72e6 | 1.27e6 | 1.19e6 | inactive
RhoGAP18B | 1 | 1.37e6 | 1.43e6 | 9.61e5 | 1.03e6 | inactive
RhoGAP18B | 2 | 1.34e6 | 1.39e6 | 8.01e5 | 9.08e5 | inactive
RhoGAP18B | 3 | 1.36e6 | 1.38e6 | 9.94e5 | 1.06e6 | inactive
RhoGAP18B | 4 | 1.41e6 | 1.44e6 | 9.05e5 | 1.04e6 | inactive
